Source: article PMC3161984
No constants are given. Whether binding was seen depends on the method and setting. In cells and extracts the contact can be indirect. Some entries that bind do so weakly or less than the wild type.

Sequences of proteins named here, by UniProt entry; tags and fusion partners are left off.
UniProt Q09472: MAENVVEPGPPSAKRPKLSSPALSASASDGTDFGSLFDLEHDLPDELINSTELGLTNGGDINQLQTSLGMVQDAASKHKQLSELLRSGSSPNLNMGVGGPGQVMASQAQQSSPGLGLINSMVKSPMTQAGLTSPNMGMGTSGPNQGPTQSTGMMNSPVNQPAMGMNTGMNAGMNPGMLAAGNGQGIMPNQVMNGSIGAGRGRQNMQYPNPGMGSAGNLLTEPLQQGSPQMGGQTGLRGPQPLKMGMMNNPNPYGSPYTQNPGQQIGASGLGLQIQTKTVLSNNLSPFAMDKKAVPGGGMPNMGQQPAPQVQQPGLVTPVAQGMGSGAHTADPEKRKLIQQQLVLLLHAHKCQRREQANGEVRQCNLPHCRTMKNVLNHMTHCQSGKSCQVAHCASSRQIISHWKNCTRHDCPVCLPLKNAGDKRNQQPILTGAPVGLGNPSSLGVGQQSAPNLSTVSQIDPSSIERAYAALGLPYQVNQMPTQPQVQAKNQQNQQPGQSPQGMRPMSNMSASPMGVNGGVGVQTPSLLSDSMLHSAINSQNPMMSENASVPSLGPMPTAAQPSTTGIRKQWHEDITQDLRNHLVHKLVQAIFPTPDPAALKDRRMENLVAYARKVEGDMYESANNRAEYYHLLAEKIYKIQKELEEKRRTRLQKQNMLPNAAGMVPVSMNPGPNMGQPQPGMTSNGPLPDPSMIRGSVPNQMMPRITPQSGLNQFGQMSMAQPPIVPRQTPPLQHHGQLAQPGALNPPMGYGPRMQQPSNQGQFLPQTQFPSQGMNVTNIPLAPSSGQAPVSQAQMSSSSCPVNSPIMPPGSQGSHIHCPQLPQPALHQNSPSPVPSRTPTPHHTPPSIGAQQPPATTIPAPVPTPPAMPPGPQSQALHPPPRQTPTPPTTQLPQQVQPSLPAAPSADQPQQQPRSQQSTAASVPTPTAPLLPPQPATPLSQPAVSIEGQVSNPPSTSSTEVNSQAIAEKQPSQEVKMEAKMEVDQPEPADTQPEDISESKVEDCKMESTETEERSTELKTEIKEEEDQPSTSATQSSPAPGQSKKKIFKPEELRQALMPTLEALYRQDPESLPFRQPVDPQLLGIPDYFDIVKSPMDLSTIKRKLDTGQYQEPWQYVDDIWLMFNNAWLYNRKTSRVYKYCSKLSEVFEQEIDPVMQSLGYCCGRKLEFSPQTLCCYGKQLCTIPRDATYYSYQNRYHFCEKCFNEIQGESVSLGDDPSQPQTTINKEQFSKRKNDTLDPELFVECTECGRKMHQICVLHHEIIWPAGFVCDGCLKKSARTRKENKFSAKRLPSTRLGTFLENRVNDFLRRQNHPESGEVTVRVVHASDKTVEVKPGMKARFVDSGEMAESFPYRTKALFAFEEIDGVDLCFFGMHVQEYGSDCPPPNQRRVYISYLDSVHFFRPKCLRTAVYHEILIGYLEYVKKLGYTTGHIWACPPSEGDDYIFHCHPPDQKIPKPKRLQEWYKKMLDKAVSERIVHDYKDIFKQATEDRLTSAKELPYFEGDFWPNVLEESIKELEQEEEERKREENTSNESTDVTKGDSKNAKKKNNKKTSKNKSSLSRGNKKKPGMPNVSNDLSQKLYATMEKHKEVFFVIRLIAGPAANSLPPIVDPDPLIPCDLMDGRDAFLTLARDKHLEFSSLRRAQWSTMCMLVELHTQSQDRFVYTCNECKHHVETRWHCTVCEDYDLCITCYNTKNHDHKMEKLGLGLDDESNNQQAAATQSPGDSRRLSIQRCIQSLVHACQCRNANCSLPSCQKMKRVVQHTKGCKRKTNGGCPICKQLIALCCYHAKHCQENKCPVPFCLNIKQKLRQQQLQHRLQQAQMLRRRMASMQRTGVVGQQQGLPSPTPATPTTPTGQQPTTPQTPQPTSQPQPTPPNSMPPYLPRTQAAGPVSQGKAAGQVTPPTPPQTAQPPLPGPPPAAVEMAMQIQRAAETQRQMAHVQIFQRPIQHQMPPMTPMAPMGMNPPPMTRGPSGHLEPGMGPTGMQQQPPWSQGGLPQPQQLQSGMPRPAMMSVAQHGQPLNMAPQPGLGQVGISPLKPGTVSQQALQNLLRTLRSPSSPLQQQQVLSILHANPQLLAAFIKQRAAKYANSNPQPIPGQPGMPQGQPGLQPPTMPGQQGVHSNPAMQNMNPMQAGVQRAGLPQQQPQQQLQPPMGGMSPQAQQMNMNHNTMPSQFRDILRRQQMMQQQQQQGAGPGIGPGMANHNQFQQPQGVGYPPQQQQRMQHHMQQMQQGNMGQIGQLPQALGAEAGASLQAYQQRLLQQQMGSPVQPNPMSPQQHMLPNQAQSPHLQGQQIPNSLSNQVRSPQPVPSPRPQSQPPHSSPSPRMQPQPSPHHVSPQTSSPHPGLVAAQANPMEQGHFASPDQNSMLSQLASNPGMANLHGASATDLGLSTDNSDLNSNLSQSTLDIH
UniProt P06428: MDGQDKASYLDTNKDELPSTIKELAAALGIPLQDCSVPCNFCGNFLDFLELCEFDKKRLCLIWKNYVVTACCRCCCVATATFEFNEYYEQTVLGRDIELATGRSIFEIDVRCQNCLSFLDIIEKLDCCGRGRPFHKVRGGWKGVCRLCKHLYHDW

Key:
[1] = biological target: histone acetyltransferase p300 (endogenous) (human (endogenous in HFKs)) (UniProt Q09472); test: co-IP
[2] = biological target: GST-tagged E6 protein from β-HPV type 8 (human papillomavirus type 8) (UniProt P06428); test: pull-down; only the target purified
[3] = biological target: C-terminally HA-tagged E6 protein of β-HPV type 8 (human papillomavirus type 8) (UniProt P06428); test: co-IP

| Substance | binding [1] | binding [2] | binding [3] |
| --- | --- | --- | --- |
| C-terminally HA-tagged E6 protein of β-HPV type 8 (from UniProt P06428 1-155) | binds | – | – |
| histone acetyltransferase p300 (endogenous) (from UniProt Q09472 1-2414) | – | binds | binds |
